Source: PubChem BioAssay AID1259308 (NCATS, 2017)
Aim: 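Genes whose loss raises luciferase production in HEK293 cells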 (primary screen). System: human HEK293 embryonic kidney cells stably expressing firefly luciferase (HEK-CMV-Luc2-Hygro). Knock-down reagent: single siRNA against human genes, 0.8 pmol siRNA per well. Time to read-out: 72 h. Measurement: 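Reporter luminescence and viable-cell signal on separate replicate plates, given as percent of non-targeting control and median/MAD z-scores, plus per-cell luciferase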. Scale: total luciferase, z-score and total luciferase, % of control: higher = more reporter protein produced. Hit rule: 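An siRNA counts as active if its total luciferase robust z-score exceeds 3; genes with two or more such siRNAs out of three were retested with fresh siRNAs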. Meaning of the calls: active = raised luciferase; inactive = no rise.
Shown is one part, drawn at random, of about 59,000 reagents. About 1,510 of all reagents (2.6%) count as active. 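Calls use total luciferase alone and ignore viability, so some active siRNAs may act by altering cell number.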 The numbers tell different reagents against one gene apart. Further read-outs or replicates are left out here.

no.	gene knocked down	reagent	total luciferase, z-score	total luciferase, % of control	activity call
1	SLMAP	1	1.84	119	inactive
2	SLMAP	2	2.19	126	inactive
3	SLMAP	3	-0.546	71	inactive
4	ZNF282	1	0.823	98.3	inactive
5	ZNF282	2	0.562	93.1	inactive
6	ZNF282	3	-0.703	67.9	inactive
7	MIB2	1	0.963	101	inactive
8	MIB2	2	-0.983	62.3	inactive
9	MIB2	3	-1.6	50.1	inactive
10	ULK4	1	0.921	100	inactive
11	ULK4	2	3.56	153	active
12	ULK4	3	1.92	120	inactive
13	OR1M1	1	-0.741	67.1	inactive
14	OR1M1	2	-0.967	62.7	inactive
15	OR1M1	3	-0.00422	81.8	inactive
16	ZNF716	1	1.52	112	inactive
17	ZNF716	2	-0.166	78.6	inactive
18	ZNF716	3	1.34	109	inactive
19	RFXAP	1	-0.643	69.1	inactive
20	RFXAP	2	-0.691	68.1	inactive
21	RFXAP	3	0.666	95.1	inactive
22	DMTN	1	-0.414	73.6	inactive
23	DMTN	2	0.0954	83.8	inactive
24	DMTN	3	2.8	138	inactive
25	MITF	1	0.479	91.4	inactive
26	MITF	2	-0.243	77.1	inactive
27	MITF	3	-0.728	67.4	inactive
28	MTFMT	1	0.304	87.9	inactive
29	MTFMT	2	-1.2	58.1	inactive
30	MTFMT	3	-0.0132	81.6	inactive
31	C5orf34	1	-0.121	79.5	inactive
32	C5orf34	2	-0.743	67.1	inactive
33	C5orf34	3	0.709	96	inactive
34	ZNF226	1	-0.802	65.9	inactive
35	ZNF226	2	-0.719	67.6	inactive
36	ZNF226	3	-0.684	68.3	inactive
37	IL38	1	0.285	87.6	inactive
38	IL38	2	0.323	88.3	inactive
39	IL38	3	-0.574	70.5	inactive
40	RPL29P12	1	0.595	93.7	inactive
41	RPL29P12	2	0.365	89.1	inactive
42	RPL29P12	3	0.517	92.2	inactive
43	SCN3A	1	-0.175	78.4	inactive
44	SCN3A	2	-0.236	77.2	inactive
45	SCN3A	3	-0.444	73.1	inactive
46	COX6B1	1	-0.974	62.5	inactive
47	COX6B1	2	0.336	88.6	inactive
48	COX6B1	3	0.337	88.6	inactive
49	ARC	1	-2.49	32.3	inactive
50	ARC	2	-0.309	75.7	inactive
51	ARC	3	0.389	89.6	inactive
52	SARNP	1	0.564	93.1	inactive
53	SARNP	2	3.46	151	active
54	SARNP	3	-0.581	70.3	inactive
55	RXFP3	1	1.05	103	inactive
56	RXFP3	2	3.9	159	active
57	RXFP3	3	-0.629	69.4	inactive
58	ATOSA	1	0.27	87.3	inactive
59	ATOSA	2	-0.16	78.7	inactive
60	ATOSA	3	-0.00553	81.8	inactive
61	LEPROTL1	1	-0.164	78.6	inactive
62	LEPROTL1	2	1.26	107	inactive
63	LEPROTL1	3	1.7	116	inactive
64	DHX35	1	0.401	89.9	inactive
65	DHX35	2	0.701	95.8	inactive
66	DHX35	3	0.305	88	inactive
67	SLCO4A1	1	-1.85	45.1	inactive
68	SLCO4A1	2	0.433	90.5	inactive
69	SLCO4A1	3	-0.153	78.9	inactive
70	KRTAP10-10	1	-2.62	29.8	inactive
71	KRTAP10-10	2	-1.79	46.3	inactive
72	KRTAP10-10	3	0.29	87.7	inactive
73	INHBA	1	-1.14	59.2	inactive
74	INHBA	2	-1.13	59.4	inactive
75	INHBA	3	-1.98	42.5	inactive
